Here are results for 42 sequences from publication PMC7819943, “Rice protein-binding microarrays: a tool to detect cis-acting elements near promoter regions in rice”.

Amino acid sequences for entries named in this document (tags omitted).
UniProt Q0JBA9, entry or part of it: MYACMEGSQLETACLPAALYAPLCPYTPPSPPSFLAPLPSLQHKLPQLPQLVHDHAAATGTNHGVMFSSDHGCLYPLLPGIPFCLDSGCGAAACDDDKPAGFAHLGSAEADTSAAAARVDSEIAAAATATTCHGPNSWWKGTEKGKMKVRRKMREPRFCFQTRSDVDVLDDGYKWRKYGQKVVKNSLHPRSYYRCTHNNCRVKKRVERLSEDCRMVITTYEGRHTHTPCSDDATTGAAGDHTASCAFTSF

The list shows a part of the results.

This assay has as its target OsWRKY34 (Oryza sativa, UniProt Q0JBA9 1-250). The assay is described as follows: protein-binding microarray (RPBM); PBS, 2% BSA, 51.3 ng/ul salmon testes DNA, 50 uM zinc acetate, 200 nM TF, 25 C, 1 h; high values mean tight binding. As to conditions: protein: recombinant; tags: N-terminal polyhistidine and DsRed monomer fusion (pET32a); label: CyDye5-dUTP incorporated in the synthesized complementary strand; 3' TTTTT single-stranded linker to array surface; dsDNA, one strand shown. The method, boiled down:
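Polyhistidine-tagged DsRed fusions of transcription factors, joined at the N-terminus, were expressed in E. coli BL21-CodonPlus and isolated on Ni–NTA. They were incubated at 200 nM for 1 h at 25 °C on a custom Agilent array, double-stranded and BSA-blocked, in PBS with 2% BSA, salmon testes DNA and 50 µM zinc acetate. The binding signal is per-feature fluorescence intensity (arbitrary units) read on an Axon 4000B scanner after washing.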
Consider “ATTTGTTCTTTTGGATCTGTTGTATTTAGATTATTCCTATCGGAGTCACCTAGTGCAG”, for which the binding signal was 8890 fluorescence intensity (a.u.).
As to “CTCCGTCCCATAATATAAGGGATTTTGACTTTTTACTTGCCGGAGTCACCTAGTGCAG”, the binding signal is 11200 fluorescence intensity (a.u.).
For the sequence “GGTTGATCATTTGCGGCTTGTCTTGCTTCTCGTGCCGCTGCGGAGTCACCTAGTGCAG”, the binding signal was 8240 fluorescence intensity (a.u.).
Consider “GGGGCTGATACATTTATGATCTTTTCTTCCTTCCTTTCCTCGGAGTCACCTAGTGCAG”, for which the binding signal was 10900 fluorescence intensity (a.u.).
“ATGGCCACGCCTCCACCCGTCACTTCGCTGCATCGCTGACCGGAGTCACCTAGTGCAG”: the binding signal is 9700 fluorescence intensity (a.u.).
As for “CCACCGCCGCTTCGCTTCACTCTCGCGTTCGAGTCACACACGGAGTCACCTAGTGCAG”, the binding signal is 10000 fluorescence intensity (a.u.).
For “GCAATTCTTGCGGGTTTGTGTTTTTTTTTTCTTCTTCTTCCGGAGTCACCTAGTGCAG”, the binding signal is 8030 fluorescence intensity (a.u.).
On to “ATCTCTCTCATATTCCTTCGATCTGCAGCTTGTACGTTGGCGGAGTCACCTAGTGCAG”, for which the binding signal is 14500 fluorescence intensity (a.u.).
For “TTCCGACTGGTCATCTCATCGATCATCCGCGATTCTTTTTCGGAGTCACCTAGTGCAG” the value was 12200 fluorescence intensity (a.u.).
As for “GCACCGAGATCTTCTGTGCCTACTTCGCATCATACCTCGCCGGAGTCACCTAGTGCAG”, the binding signal was 8820 fluorescence intensity (a.u.).
Take “AGTGGTTTGAATATTCGTTTTGTTTTGTTACTTTTTTTGACGGAGTCACCTAGTGCAG”: the binding signal was 15200 fluorescence intensity (a.u.).
“GGTAGCAGGTGGGCTGATGTCGTAGGTTCACGTGGGCGCGCGGAGTCACCTAGTGCAG”: the binding signal is 8920 fluorescence intensity (a.u.).
For the sequence “CTTGTCATTAGTAAATGTTTACGGTAGCACCACATTTTTTCGGAGTCACCTAGTGCAG”, the binding signal was 8040 fluorescence intensity (a.u.).
For “AATTAAATATAGACTGGTATCTCCTTTTAGGTTAGCTTTTCGGAGTCACCTAGTGCAG” the value was 8170 fluorescence intensity (a.u.); for “GCACTTAGATTCTCCTCAAGCTCTTTTTACCGTACCTGTTCGGAGTCACCTAGTGCAG”, 8180 fluorescence intensity (a.u.); for “CCTGTCTACCTATGGAATAGCCCCATGATTCATGAACAACCGGAGTCACCTAGTGCAG”, 9740 fluorescence intensity (a.u.).
Regarding “TCTATCTTCTCCATCTTCCACCACTTGTATCCCCTTAGTTCGGAGTCACCTAGTGCAG”, the binding signal is 9300 fluorescence intensity (a.u.).
Turning to “CGGTCTTTTTGTTTGGTTATTCGGTTAGGTCTTATATTGCCGGAGTCACCTAGTGCAG”, the binding signal was 8910 fluorescence intensity (a.u.).
For the sequence “CGTCTGTTTATCCTTTATCTATTTATTCTTCCCCTGGTGTCGGAGTCACCTAGTGCAG”, the binding signal is 8140 fluorescence intensity (a.u.).
For the sequence “GGATTGTCCTTGTTCTGTTGCGAAAACCCAGCTAAAATAGCGGAGTCACCTAGTGCAG”, the binding signal was 9370 fluorescence intensity (a.u.).
As to “CAGTGTGTTATCTTTGATCAGTCACCAGGTTGCATTTCTTCGGAGTCACCTAGTGCAG”, the binding signal was 8880 fluorescence intensity (a.u.).
“AGTTTTCTTTGTTCACCTACCGTTTTTTTAGCACGTAGTTCGGAGTCACCTAGTGCAG”: the binding signal was 10500 fluorescence intensity (a.u.).
“GTGCCCATTTTGTCAACGCGCAGTCTCCCTGACTTTCTCTCGGAGTCACCTAGTGCAG”: the binding signal is 9160 fluorescence intensity (a.u.).
Take “TAAAATTGACTCTTATGGTATAGAAATTCTCATATTTACGCGGAGTCACCTAGTGCAG”: the binding signal was 8080 fluorescence intensity (a.u.).
Regarding “TCAATTTTCAACGATGTTTTATTTCAGCTTTGTTTTTGACCGGAGTCACCTAGTGCAG”, the binding signal is 12700 fluorescence intensity (a.u.).
For “GCCATAGGACCTTTAGTGTATGGTTTTGTATAGTTTAGGGCGGAGTCACCTAGTGCAG” the value was 8080 fluorescence intensity (a.u.).
In the case of “GCACACACATCGATCGCTAATCCATCAACCTATAGCTTAACGGAGTCACCTAGTGCAG”, the binding signal is 10900 fluorescence intensity (a.u.).
With “TCATCGCCGATCGATTGACCATTTGACCTCCAAGATTGTTCGGAGTCACCTAGTGCAG”, the binding signal was 8140 fluorescence intensity (a.u.).
For the sequence “TACCTTAAAATTCTCTAGTGGTGGTGGTGGTGAAAGGGTTCGGAGTCACCTAGTGCAG”, the binding signal was 8450 fluorescence intensity (a.u.).
Regarding “GGAGGTAGTTTATATTTTGTGACGGAGGTAGTATAACGGACGGAGTCACCTAGTGCAG”, the binding signal is 9180 fluorescence intensity (a.u.).
The same measure for “ACACTTTCTCTCTTGTACACTTTCATTTCACGTGTCTAAACGGAGTCACCTAGTGCAG”: 17500 fluorescence intensity (a.u.); for “AAAACATATACCTTCGTTTCTCTTTTCTTTTCCAGTTCCTCGGAGTCACCTAGTGCAG”: 9130 fluorescence intensity (a.u.).
Consider “ACCGTATACATAGTTTTCACCGTATATTTTCCCATTTCTCCGGAGTCACCTAGTGCAG”, for which the binding signal was 9600 fluorescence intensity (a.u.).
The same measure for “GGCTTATCCGTTCAGTTGCCAGCCACTCAAGTTATTGCAACGGAGTCACCTAGTGCAG”: 8580 fluorescence intensity (a.u.); for “CACTCCCAGATATTTGCGCTCTCCTCTTCTTCTTATACCCCGGAGTCACCTAGTGCAG”: 10800 fluorescence intensity (a.u.).
For “TCTGAACCTTCTTTACTTGTCCTCAAATGGCCACCTCTTCCGGAGTCACCTAGTGCAG”, the binding signal was 8260 fluorescence intensity (a.u.).
“GTACATTACTCTTCTAATTAGCAACAGGCATGCAAATAATCGGAGTCACCTAGTGCAG”: the binding signal is 8860 fluorescence intensity (a.u.).
Turning to “TAGCTTCGTCCACCCAATTTGACTTTCCAATCCATTGTGACGGAGTCACCTAGTGCAG”, the binding signal is 11100 fluorescence intensity (a.u.).
As to “GTTATGTGCCAATGGAGCTTTGTGTAGTTTGTGAGGGCCACGGAGTCACCTAGTGCAG”, the binding signal was 9830 fluorescence intensity (a.u.).
As to “GTGGATCGTGGTCTCCGTCTCGTCCCCGCCCACCGCCGCGCGGAGTCACCTAGTGCAG”, the binding signal was 8320 fluorescence intensity (a.u.).
For “TCGCCGCGATTCCTCTTCCGCCCGCCGCTGGTCGTCGCCGCGGAGTCACCTAGTGCAG”, the binding signal was 10100 fluorescence intensity (a.u.).
The same measure for “GGTTGTTGAGCTAGCATTATACGTACATTTAAGTTTGGCACGGAGTCACCTAGTGCAG”: 11100 fluorescence intensity (a.u.).
